These are yes or no findings as the source states them, for the method shown. For part of these data: In cells and extracts the contact can be indirect. Some entries that bind do so weakly or less than the wild type. Sequences can lack the tags named with a protein. Blank lines part the entries; values can stand above or below the binder they belong to.
Tests used:
[1] = target: T1, full-length SPY–HA (35S::SPY–3xHA) (Arabidopsis thaliana) (UniProt Q96301); test: co-IP; N. benthamiana leaves co-infiltrated with 35S::SPT–3xFLAG and 35S::SEC–3xHA or 35S::SPY–3xHA (with P19), 48 h; total protein extract immunoprecipitated with anti-HA magnetic beads; blots with anti-HA and anti-FLAG
T1 sequence: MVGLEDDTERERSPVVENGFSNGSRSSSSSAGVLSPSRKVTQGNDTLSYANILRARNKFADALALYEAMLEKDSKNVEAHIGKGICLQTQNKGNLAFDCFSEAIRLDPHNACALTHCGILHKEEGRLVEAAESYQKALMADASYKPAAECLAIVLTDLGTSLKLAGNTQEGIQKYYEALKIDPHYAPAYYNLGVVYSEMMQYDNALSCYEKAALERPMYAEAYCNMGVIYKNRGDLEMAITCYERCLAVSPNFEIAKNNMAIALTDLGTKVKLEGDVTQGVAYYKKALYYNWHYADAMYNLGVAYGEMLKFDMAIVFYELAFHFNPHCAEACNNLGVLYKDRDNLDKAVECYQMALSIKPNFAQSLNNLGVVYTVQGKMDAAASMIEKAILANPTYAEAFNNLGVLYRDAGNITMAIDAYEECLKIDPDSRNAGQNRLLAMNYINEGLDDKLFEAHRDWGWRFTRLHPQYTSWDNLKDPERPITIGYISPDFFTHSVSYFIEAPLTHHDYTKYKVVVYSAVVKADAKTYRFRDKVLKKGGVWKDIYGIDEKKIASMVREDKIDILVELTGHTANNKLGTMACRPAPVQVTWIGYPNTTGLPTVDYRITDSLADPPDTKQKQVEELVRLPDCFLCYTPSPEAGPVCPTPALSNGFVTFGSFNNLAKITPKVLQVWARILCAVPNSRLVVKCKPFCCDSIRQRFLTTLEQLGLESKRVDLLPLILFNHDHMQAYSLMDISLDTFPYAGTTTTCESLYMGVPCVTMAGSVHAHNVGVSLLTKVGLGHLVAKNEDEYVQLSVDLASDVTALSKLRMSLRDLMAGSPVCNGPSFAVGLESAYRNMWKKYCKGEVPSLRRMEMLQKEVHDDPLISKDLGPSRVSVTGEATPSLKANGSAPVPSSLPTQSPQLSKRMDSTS

[2] = target: T2, full-length SEC–HA (35S::SEC–3xHA) (Arabidopsis thaliana) (UniProt Q9M8Y0); test: as above
T2 sequence: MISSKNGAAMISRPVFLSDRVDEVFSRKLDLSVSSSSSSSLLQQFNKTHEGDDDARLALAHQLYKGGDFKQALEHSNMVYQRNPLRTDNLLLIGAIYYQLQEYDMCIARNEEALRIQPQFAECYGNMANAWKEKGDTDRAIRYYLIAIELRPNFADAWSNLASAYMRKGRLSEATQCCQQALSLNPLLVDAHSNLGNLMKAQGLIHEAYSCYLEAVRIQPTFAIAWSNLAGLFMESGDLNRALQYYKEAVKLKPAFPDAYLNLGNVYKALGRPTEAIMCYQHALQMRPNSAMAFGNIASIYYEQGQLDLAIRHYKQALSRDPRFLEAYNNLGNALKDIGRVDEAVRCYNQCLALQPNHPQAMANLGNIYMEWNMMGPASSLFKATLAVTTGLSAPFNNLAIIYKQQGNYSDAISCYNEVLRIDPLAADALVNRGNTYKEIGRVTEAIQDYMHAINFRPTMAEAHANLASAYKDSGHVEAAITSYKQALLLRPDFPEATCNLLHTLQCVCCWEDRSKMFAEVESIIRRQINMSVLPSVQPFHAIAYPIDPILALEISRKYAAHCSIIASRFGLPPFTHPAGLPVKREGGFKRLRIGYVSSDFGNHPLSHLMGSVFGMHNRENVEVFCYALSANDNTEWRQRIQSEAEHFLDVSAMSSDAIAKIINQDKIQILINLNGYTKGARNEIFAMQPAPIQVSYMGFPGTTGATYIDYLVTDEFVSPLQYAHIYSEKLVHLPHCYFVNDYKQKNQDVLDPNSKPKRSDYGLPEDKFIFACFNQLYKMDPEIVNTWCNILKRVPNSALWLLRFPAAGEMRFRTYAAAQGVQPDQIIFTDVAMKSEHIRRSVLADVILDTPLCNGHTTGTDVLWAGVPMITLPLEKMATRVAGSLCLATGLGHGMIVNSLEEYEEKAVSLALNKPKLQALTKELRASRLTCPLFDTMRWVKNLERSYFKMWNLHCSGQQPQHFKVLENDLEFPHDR

[3] = target: T3, SPY–cLuc (35S::SPY–cLuc) (Arabidopsis thaliana) (UniProt Q96301); test: split reporter; split-luciferase complementation in N. benthamiana leaves, 35S::SPT–nLuc co-infiltrated with 35S::SEC–cLuc or 35S::SPY–cLuc (with P19), 48 h, 0.4 mM D-luciferin; empty nLuc and cLuc vectors as controls
T3 sequence: T1 sequence

[4] = target: T4, SEC–cLuc (35S::SEC–cLuc) (Arabidopsis thaliana) (UniProt Q9M8Y0); test: as above
T4 sequence: T2 sequence

[5] = target: T5, SEC full length, yeast two-hybrid bait (BD) (Arabidopsis thaliana) (UniProt Q9M8Y0); test: two-hybrid; yeast AH109; SEC and SPY as bait (BD), SPT as prey (AD); growth on SD/−Ade/−His/−Leu/−Trp and with 2.5 mM 3-AT, serial dilutions, five days at 28 °C
T5 sequence: T2 sequence

[6] = target: T6, SPY full length, yeast two-hybrid bait (BD) (Arabidopsis thaliana) (UniProt Q96301); test: as above
T6 sequence: T1 sequence

[7] = target: T7, HEC1, yeast two-hybrid fusion (Arabidopsis thaliana) (UniProt Q9FHA7); test: as above
T7 sequence: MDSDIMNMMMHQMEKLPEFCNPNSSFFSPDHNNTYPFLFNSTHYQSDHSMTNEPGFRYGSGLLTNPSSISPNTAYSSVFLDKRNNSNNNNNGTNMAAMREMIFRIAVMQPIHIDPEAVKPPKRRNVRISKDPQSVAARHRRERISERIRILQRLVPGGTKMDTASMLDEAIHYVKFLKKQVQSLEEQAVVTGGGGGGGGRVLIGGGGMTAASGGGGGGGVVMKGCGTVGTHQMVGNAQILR

binding [1]: binds | binding [2]: binds
B1: full-length SPT–FLAG (35S::SPT–3xFLAG) (protein, UniProt Q9FUA4 1-373)
chain: MISQREEREEKKQRVMGDKKLISSSSSSSVYDTRINHHLHHPPSSSDEISQFLRHIFDRSSPLPSYYSPATTTTTASLIGVHGSGDPHADNSRSLVSHHPPSDSVLMSKRVGDFSEVLIGGGSGSAAACFGFSGGGNNNNVQGNSSGTRVSSSSVGASGNETDEYDCESEEGGEAVVDEAPSSKSGPSSRSSSKRCRAAEVHNLSEKRRRSRINEKMKALQSLIPNSNKTDKASMLDEAIEYLKQLQLQVQMLTMRNGINLHPLCLPGTTLHPLQLSQIRPPEATNDPLLNHTNQFASTSNAPEMINTVASSYALEPSIRSHFGPFPLLTSPVEMSREGGLTHPRLNIGHSNANITGEQALFDGQPDLKDRIT

binding [3]: binds | binding [4]: binds
B2: full-length SPT–nLuc (35S::SPT–nLuc) (protein, UniProt Q9FUA4 1-373)
chain: B1 chain

binding [5]: binds | binding [6]: binds
B3: SPT full length, yeast two-hybrid prey (AD) (protein, UniProt Q9FUA4 1-373)
chain: B1 chain

binding [7]: no binding | binding [5]: binds | binding [6]: binds
B4: SPT fragment containing only the AH domain (residues 1–135), yeast two-hybrid prey (AD) (domain or fragment, UniProt Q9FUA4 1-135)
chain: MISQREEREEKKQRVMGDKKLISSSSSSSVYDTRINHHLHHPPSSSDEISQFLRHIFDRSSPLPSYYSPATTTTTASLIGVHGSGDPHADNSRSLVSHHPPSDSVLMSKRVGDFSEVLIGGGSGSAAACFGFSGG

binding [7]: no binding | binding [5]: binds | binding [6]: binds
B5: SPT N-terminal domain (residues 1–180), yeast two-hybrid prey (AD) (domain or fragment, UniProt Q9FUA4 1-180)
chain: MISQREEREEKKQRVMGDKKLISSSSSSSVYDTRINHHLHHPPSSSDEISQFLRHIFDRSSPLPSYYSPATTTTTASLIGVHGSGDPHADNSRSLVSHHPPSDSVLMSKRVGDFSEVLIGGGSGSAAACFGFSGGGNNNNVQGNSSGTRVSSSSVGASGNETDEYDCESEEGGEAVVDEA

binding [7]: binds | binding [5]: binds | binding [6]: no binding
B6: SPT C-terminal truncation (residues 136–373), yeast two-hybrid prey (AD) (domain or fragment, UniProt Q9FUA4 136-373)
chain: GNNNNVQGNSSGTRVSSSSVGASGNETDEYDCESEEGGEAVVDEAPSSKSGPSSRSSSKRCRAAEVHNLSEKRRRSRINEKMKALQSLIPNSNKTDKASMLDEAIEYLKQLQLQVQMLTMRNGINLHPLCLPGTTLHPLQLSQIRPPEATNDPLLNHTNQFASTSNAPEMINTVASSYALEPSIRSHFGPFPLLTSPVEMSREGGLTHPRLNIGHSNANITGEQALFDGQPDLKDRIT

Reference: article PMC10881398, “O-glycosylation of the transcription factor SPATULA promotes style development in Arabidopsis” (Nature Plants, 2024)
